In paper doi:10.1101/2024.04.12.589178 one finds binding data, which are given here for one substance.

Amino acid sequences for entries named in this document (tags omitted). Residues count along the entry.
UniProt P30405, residues 30-207: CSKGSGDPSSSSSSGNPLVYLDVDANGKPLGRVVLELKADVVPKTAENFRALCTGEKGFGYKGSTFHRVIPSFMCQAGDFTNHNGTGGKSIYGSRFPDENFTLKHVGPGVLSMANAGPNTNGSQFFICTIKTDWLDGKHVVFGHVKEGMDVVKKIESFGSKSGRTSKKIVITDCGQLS

The target of this experiment is T1, MPV17-BirA* (human) (UniProt P39210).
T1 sequence: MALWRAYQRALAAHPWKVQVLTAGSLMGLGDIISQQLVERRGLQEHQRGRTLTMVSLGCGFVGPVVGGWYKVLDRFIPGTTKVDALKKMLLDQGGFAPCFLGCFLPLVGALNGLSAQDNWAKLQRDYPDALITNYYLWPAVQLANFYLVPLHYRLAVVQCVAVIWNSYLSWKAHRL
Description: proximity labelling.

These are yes or no findings as the source states them, for the method shown. In cells and extracts the contact can be indirect. A yes stands for co-enrichment or nearness to the bait. Other partners may have been found.

As to “CyclophilinD (from UniProt P30405 30-207)”, the binding entry is reported as “binds”.
